Reference: PubChem BioAssay AID1259415 (National Center for Advancing Translational Sciences (NCATS), 2018)
Screen size: about 410,000 compounds; about 18,000 (4.4%) were called active. This list was built around the results that the source calls inconclusive (neither active nor inactive); the mix of calls is not that of the screen. Rule as the data show it: active = activity change below about -60%; inconclusive = no clear call, values can overlap the other calls; inactive = above about -39%.

Assay: qHTS Assay for inhibitors of the human cytomegalovirus (HCMV)
Conditions: HFF cells, HCMV-luciferase reporter, 72 h; at 57.5 µM; hits give low values
How it was run: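 HFF cells seeded 16 h at 37C, treated with compounds, infected with luciferase-reporter HCMV at MOI 1 PFU/cell; luciferase read at 72 h post infection, normalized to buffer-only and Salinomycin controls.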
% is scaled to controls: 0 for no effect and ±100 for the full control effect.

| Compound | activity change, negative = inhibition |
| --- | --- |
| Clc1cccc(Cc2ccc(Cl)nn2)c1 | inconclusive: -41.8% |
| CCCOc1ccccc1/C=N/Nc1ccnc(=O)[nH]1 | inactive: 22.8% |
| CCOC(=O)c1ccc(CN(Cc2ccccc2)S(=O)(=O)c2ccc(Cl)cc2)cc1 | inactive: -6.46% |
| Cc1cccc(-c2nc(CSc3nncn4c3cc3sccc34)c(C)o2)c1 | inconclusive: -41.6% |
| COC(=O)CCN(C1CCCCC1)S(=O)(=O)c1ccc(S(=O)(=O)NC2CCCCC2)cc1 | inconclusive: -45.3% |
| CCOC(=O)c1ccc(NC(=O)c2nc[nH]c2C(=O)NCCCNC(=O)c2[nH]cnc2C(=O)Nc2ccc(C(=O)OCC)cc2)cc1 | inactive: 4.54% |
| Cc1ccccc1C(=O)Nc1nc(-c2ccc(Br)cc2)ns1 | active: -95.5% |
| COc1ccc(-c2csc3nc(-c4ccccc4)oc(=O)c23)cc1OC | inconclusive: -46% |
| CCOCc1c(C(=O)Nc2ccc3nc(N4CCOCC4)sc3c2)oc2ccccc12 | inactive: 43.6% |
| CN(C)S(=O)(=O)c1cccc(C(=O)OCC(=O)c2ccc3c(c2)NC(=O)CO3)c1 | inconclusive: -55% |
| CCOc1ccc(C(=O)Nc2cccc(C(=O)O)c2C)cc1Cl | inconclusive: -51% |
| FC(F)Oc1ccccc1NC(=S)NCCc1ccccc1 | inconclusive: -42.3% |
| CCOc1ccc(NC2=C(OC)C(=O)c3ccccc3C2=O)cc1 | inactive: 16.6% |
| CCOC1=C2[C@H](c3ccccc3)N(S(=O)(=O)c3ccccc3)C[C@H]2n2c(=O)n(-c3ccccc3)c(=O)n2C1 | inactive: -25.9% |
| CCCc1cc2c(=O)c(-c3ccccn3)coc2cc1OC | inconclusive: -43.9% |
| COc1ccc(CC(=O)NNC(=S)NC(=O)c2cccnc2)cc1 | inactive: 22.7% |
| O=C(Cc1ccc(Cl)cc1)Nc1ccc2oc(-c3ccncc3)nc2c1 | inconclusive: -46.8% |
| Cc1ccccc1Oc1cc(-n2ncc(Cl)c(Cl)c2=O)ncn1 | active: -105% |
| Cc1cc(C)c(S(=O)(=O)N[C@H]2CC[C@@]34CCCN3C(=O)CCC[C@H]4[C@H]2Cc2ccccc2)c(C)c1 | inactive: -21.9% |
| O=C(CSCc1cnn(-c2ccccc2)c1-n1cccc1)NCc1ccc(F)cc1 | inactive: 4% |
| O=C(CCCCn1c(=O)c2ccccc2n(Cc2ccccc2)c1=O)NC1CCN(Cc2ccccc2)CC1 | inconclusive: -41.3% |
| Cc1cc(Br)ccc1NC(=O)CNC(=O)Cn1ncc(Cl)c(Cl)c1=O | active: -101% |

| Compound | activity change, negative = inhibition |
| --- | --- |
| CCN(CC)c1ccc(S(=O)(=O)N2CCOCC2)cc1NC(=O)COC(=O)/C=C/c1ccccc1 | inconclusive: -48.7% |
| CCOC(=O)c1ccc(NC(=S)NCCc2ccc(OC)c(OC)c2)cc1 | inactive: -8.48% |
| Cc1ccc2nc(N/N=C/c3ccccc3F)nc(-c3ccccc3)c2c1 | inconclusive: -41.2% |
| CCCC(C(=O)Nc1ccc(C)c(S(=O)(=O)N2CCOCC2)c1)c1ccccc1 (stereo not given) | inconclusive: -47.1% |
| O=C1CC2(CCN(C(=O)C3CC(=O)N(c4ccccc4)C3)CC2)Oc2ccccc21 (stereo not given) | inactive: -38.7% |
| COc1ccccc1CNC(=O)CCNC(=O)C1CCN(S(=O)(=O)c2ccccc2)CC1 | inconclusive: 0% |
| Cc1ccc(Cl)cc1NC(=O)CCn1c(=O)c2cccn2c2cccnc21 | inconclusive: -47.8% |
| Cc1ccc(C)c(COC(=O)c2cc(S(=O)(=O)N3CCCCC3)ccc2N2CCOCC2)c1 | inactive: -7.72% |
| CCCCn1c(N)c(N(CC)C(=O)CCNC(=O)NC23CC4CC(CC(C4)C2)C3)c(=O)[nH]c1=O | inconclusive: -41.2% |
| CCC(C(=O)NCCc1ccco1)n1nc(C)c2c(C)n(-c3ccccc3)nc2c1=O (stereo not given) | inconclusive: -49% |
| Nc1ccc(C(=O)OCc2nc3cc4ccccc4cc3[nH]2)cc1 | active: -93.1% |
| Cc1ccc(S(=O)(=O)N2CCN(C)CC2)cc1C(=O)NC1CCCCC1 | inconclusive: -43.6% |
| CC(=O)c1ccc(N2CCN(C(=O)/C=C/c3ccc(S(=O)(=O)NCc4ccco4)cc3)CC2)cc1 | active: -66.2% |
| Cc1cc(C(=O)Nc2c(C)n(C)n(-c3ccccc3)c2=O)on1 | inactive: -3.33% |
| COc1ccccc1NC(=S)N/N=C1\CC(C)(C)Oc2ccc(O)cc21 | inconclusive: -56.5% |
| CC(=O)NC(c1ccc(F)c(F)c1)c1nc(-c2ccccc2)cs1 (stereo not given) | inactive: 6.93% |
| O=C(CN1C(=O)NC2(CCSC2)C1=O)N1CCN(c2ccc(F)cc2)CC1 (stereo not given) | inconclusive: -42.5% |
| Cc1ccc2c(CC(=O)NNC(=O)c3ccccc3O)coc2c1 | inactive: 1% |
| COC(=O)c1c(-c2ccc(OC)cc2)sc2ccc(N3CCOCC3)cc12 | inconclusive: -52.1% |
| Cc1cc(C)n(C(=O)CNC(=O)/C=C/c2ccccc2)n1 | inconclusive: -41.8% |
| Cc1ccc(C2=NN(C(=O)c3cccs3)C(c3ccccc3O)C2)cc1 (stereo not given) | active: -60.5% |
| C=CS(=O)(=O)N(C(=C)C(=O)OC)S(C)(=O)=O | active: -80.7% |

| Compound | activity change, negative = inhibition |
| --- | --- |
| CCC(=NCCc1c(C)[nH]c2ccc(C)cc12)C1=C(O)CC(c2ccccc2)CC1=O (stereo not given) | active: -76.7% |
| Cc1ccc(S(=O)(=O)Nc2ccccc2F)cc1C(=O)NNC(=O)c1ccccc1O | active: -87.2% |
| Cc1noc(/C=C/c2ccccc2F)c1S(=O)(=O)N1CCC(C(=O)NCc2ccco2)CC1 | inactive: -12.9% |
| CCOc1ccc(-c2nnn(CC(=O)N3CCCC(C)C3)n2)cc1 (stereo not given) | active: -69.5% |
| COc1cccc(/C=N/n2nnnc2N)c1O | inconclusive: -40.6% |
| CCOC(=O)N1CCN(CCC(=O)Nc2ccc(Br)c(C)c2)CC1 | inconclusive: -46.3% |
| O=C(N/N=C/C(Br)=C\c1ccccc1)c1ccc2nc[nH]c2c1 | active: -75.9% |
| O=C1c2ccccc2C(=O)N1Cc1nc2ccccc2c(=O)n1CCCn1ccnc1 | inconclusive: -41.2% |
| CCCNC(=O)NC(=O)CSc1ccc(C)cc1C | inconclusive: -48.9% |
| CN1CCN(C(=S)SCC(=O)Nc2ccc(Cl)cc2C(=O)c2ccccc2)CC1 | inconclusive: -41.2% |
| O=C(c1cccc(Cl)c1)N1CCC(=O)N([C@H](COCc2cccc(Cl)c2)Cc2ccccc2)CC1 | inactive: 5.36% |
| Cc1c(C)c2ccc(OCC(=O)N3CCN(C(=O)C4COc5ccccc5O4)CC3)cc2oc1=O (stereo not given) | inconclusive: 0% |
| COc1ccc(C(=O)CSc2nc(C)cc(C)n2)cc1[N+](=O)[O-] | inconclusive: -54.2% |
| CCC(CC)C(=O)N1N=C(c2ccc(NS(C)(=O)=O)cc2)CC1c1ccc(C)cc1 (stereo not given) | inconclusive: -50.7% |
| COC(=O)c1c(NC(=O)CSc2nncs2)sc2c1CCCCC2 | active: -61.6% |
| CCOCCn1ccc2c(OCC(=O)Nc3ccc(OC)c(OC)c3)cccc2c1=O | inconclusive: -43.6% |
| COc1ccc(CCNC(=O)[C@H](CCSC)NC(=O)N2CCn3c2nc2ccccc23)cc1OC | inconclusive: -53.7% |
| Cc1ccc(CNC(=O)c2ccc3nc4[nH]c5ccccc5c4nc3c2)cc1 | active: -102% |
| O=C1c2ccc([N+](=O)[O-])cc2S(=O)(=O)N1Cc1ccccc1 | inconclusive: -59.8% |
| O=C(Nc1ccnn1C1CCN(Cc2ccn[nH]2)CC1)c1ccccc1 | inactive: 21.5% |
| O=C(c1ccc2c(c1)N(Cc1cccc(Cl)c1)C(=O)c1ccccc1S2(=O)=O)N1CCCC1 | inconclusive: -41.9% |
| Cc1ccc(NC(=O)CN(C)C(=O)C(Sc2ccccc2)c2ccccc2)cc1 (stereo not given) | inconclusive: -41.5% |

| Compound | activity change, negative = inhibition |
| --- | --- |
| COc1ccc(-c2cc(=O)oc3c(C)c(OC(C)C(=O)Nc4ccc(CN5CCOCC5)cc4)ccc23)cc1 (stereo not given) | inconclusive: -52.6% |
| O=C(/C=C/c1ccc([N+](=O)[O-])s1)N1CCCCC1 | inconclusive: -57.8% |
| CCCCCC(=O)Nc1nc(C)c(-c2csc(Nc3ccc(Cl)cc3)n2)s1 | inconclusive: -40.7% |
| Cc1nnc2c3ccccc3nc(N3CCN(c4ccccc4)CC3)n12 | inactive: -6.92% |
| CC(C)OC(=O)NCCOC(=O)Nc1ccccc1Cl | inconclusive: -43.5% |
| CCCCCCCC(=O)N/N=C/c1ccc([N+](=O)[O-])o1 | inconclusive: -46% |
| COc1ccc(CCC(=O)Nc2c(-c3ccc(N(C)C)cc3)[nH][nH]c2=O)cc1 | active: -68% |
| S=C(NCCN1CCOCC1)Nc1ccc(Cl)c(Cl)c1 | inconclusive: -40.7% |
| COc1ccc(S(=O)(=O)NCC2CCCN(Cc3ccccc3C)C2)cc1 (stereo not given) | inconclusive: -40.8% |
| CCC(=O)C1CCCN(C(=O)CCc2nnc(-c3ccc(C(C)=O)s3)o2)C1 (stereo not given) | inactive: 72.1% |
| COc1cc(/C=N/NC(=O)c2cc(-c3cccn3C)n[nH]2)cc(OC)c1OC | inconclusive: -54% |
| COc1cc(C(=O)Nc2ccccc2N2CCCCC2)cc(OC)c1OC | inconclusive: -40.8% |
| COc1ccc(OC)c(CCNC(=O)c2cnn(-c3ccccc3)c2-n2cccc2)c1 | active: -90.1% |
| COc1ccccc1NS(=O)(=O)c1cccc(C(=O)N/N=C/c2cn(-c3ccccc3)nc2-c2ccccc2)c1 | inconclusive: -49.8% |
| Cc1cc(C)n2c(Nc3ccc4c(c3)OCCO4)c(-c3cc4ccccc4o3)nc2n1 | inconclusive: -47.7% |
| O=C(Nc1nc(-c2ccccc2)nc2ccccc12)c1ccc(F)cc1 | inconclusive: -48.9% |
| CC(=O)O/N=C/c1c(N2CCOCC2)n(C)c2ccccc12 | active: -93.5% |
| Cc1ccc(S(=O)(=O)N2CCC(=O)c3ccccc32)cc1 | inactive: -13.8% |
| CC(C)OCC(O)CN1CCC(Cc2ccccc2)CC1 (stereo not given) | inconclusive: -43.7% |

Given bar-delimited: entries from further up
Compound | activity change, negative = inhibition
CCCC(C(=O)Nc1ccc(C)c(S(=O)(=O)N2CCOCC2)c1)c1ccccc1 (stereo not given) | inconclusive: -47.1%
O=C1CC2(CCN(C(=O)C3CC(=O)N(c4ccccc4)C3)CC2)Oc2ccccc21 (stereo not given) | inactive: -38.7%
COc1ccccc1CNC(=O)CCNC(=O)C1CCN(S(=O)(=O)c2ccccc2)CC1 | inconclusive: 0%
